Reference: publication PMC12656486
These are yes or no findings as the source states them, for the method shown. In cells and extracts the contact can be indirect. Some entries that bind do so weakly or less than the wild type. Where a sequence is shown, tags or fusion partners need not be part of it. Values belong to the molecule of their own block, whether it stands above or below them.

What was measured:
GFP-SMC6 (human) = target: T1, GFP-SMC6 (human) (UniProt Q96SB8); assay: co-IP; GFP-Trap (Nano-Trap magnetic agarose, Chromotek) from HEK293 cells co-transfected with GFP-SMC6 (WT or mutant; bait), 2Myc-SIMC1 and FLAG-SLF2^CTD; western blot with anti-GFP, FLAG, Myc
T1 sequence: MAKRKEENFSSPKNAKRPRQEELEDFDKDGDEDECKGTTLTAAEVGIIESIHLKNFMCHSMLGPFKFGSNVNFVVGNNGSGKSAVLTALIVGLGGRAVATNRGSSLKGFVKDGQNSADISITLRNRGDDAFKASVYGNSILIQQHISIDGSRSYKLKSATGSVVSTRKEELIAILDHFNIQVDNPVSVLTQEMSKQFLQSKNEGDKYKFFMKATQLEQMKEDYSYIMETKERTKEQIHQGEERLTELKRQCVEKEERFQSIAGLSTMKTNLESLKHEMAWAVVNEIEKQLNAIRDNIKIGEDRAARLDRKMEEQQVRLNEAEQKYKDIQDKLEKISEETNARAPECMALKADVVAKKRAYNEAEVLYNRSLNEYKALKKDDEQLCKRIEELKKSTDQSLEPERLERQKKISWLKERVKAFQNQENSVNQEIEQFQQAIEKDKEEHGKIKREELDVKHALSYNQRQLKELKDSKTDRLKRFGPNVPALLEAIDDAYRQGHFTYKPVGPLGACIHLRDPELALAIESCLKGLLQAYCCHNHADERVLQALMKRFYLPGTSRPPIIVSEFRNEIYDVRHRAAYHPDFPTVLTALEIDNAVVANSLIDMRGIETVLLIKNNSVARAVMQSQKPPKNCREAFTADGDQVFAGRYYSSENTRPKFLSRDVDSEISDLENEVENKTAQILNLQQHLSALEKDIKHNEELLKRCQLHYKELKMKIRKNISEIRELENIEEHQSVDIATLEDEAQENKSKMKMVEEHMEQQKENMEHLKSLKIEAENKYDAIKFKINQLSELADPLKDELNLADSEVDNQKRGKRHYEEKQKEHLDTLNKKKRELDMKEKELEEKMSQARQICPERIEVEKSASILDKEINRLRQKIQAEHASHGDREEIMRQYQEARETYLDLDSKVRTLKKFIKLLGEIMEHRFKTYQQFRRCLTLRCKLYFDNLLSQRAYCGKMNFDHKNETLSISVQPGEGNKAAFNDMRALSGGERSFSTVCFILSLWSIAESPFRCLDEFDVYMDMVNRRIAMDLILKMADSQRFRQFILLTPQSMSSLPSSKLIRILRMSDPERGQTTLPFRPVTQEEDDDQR

[1] = target: T2, GFP-SIMC1 combo control mutant (human) (UniProt Q8NDZ2); assay: co-IP; GFP-Trap (Nano-Trap magnetic agarose, Chromotek) from HEK293 cells co-transfected with GFP-SIMC1 (WT or mutant; bait), Myc-SMC6 and FLAG-SLF2^CTD (WT, mut1, mut2 or 635–1160); western blot
T2 sequence: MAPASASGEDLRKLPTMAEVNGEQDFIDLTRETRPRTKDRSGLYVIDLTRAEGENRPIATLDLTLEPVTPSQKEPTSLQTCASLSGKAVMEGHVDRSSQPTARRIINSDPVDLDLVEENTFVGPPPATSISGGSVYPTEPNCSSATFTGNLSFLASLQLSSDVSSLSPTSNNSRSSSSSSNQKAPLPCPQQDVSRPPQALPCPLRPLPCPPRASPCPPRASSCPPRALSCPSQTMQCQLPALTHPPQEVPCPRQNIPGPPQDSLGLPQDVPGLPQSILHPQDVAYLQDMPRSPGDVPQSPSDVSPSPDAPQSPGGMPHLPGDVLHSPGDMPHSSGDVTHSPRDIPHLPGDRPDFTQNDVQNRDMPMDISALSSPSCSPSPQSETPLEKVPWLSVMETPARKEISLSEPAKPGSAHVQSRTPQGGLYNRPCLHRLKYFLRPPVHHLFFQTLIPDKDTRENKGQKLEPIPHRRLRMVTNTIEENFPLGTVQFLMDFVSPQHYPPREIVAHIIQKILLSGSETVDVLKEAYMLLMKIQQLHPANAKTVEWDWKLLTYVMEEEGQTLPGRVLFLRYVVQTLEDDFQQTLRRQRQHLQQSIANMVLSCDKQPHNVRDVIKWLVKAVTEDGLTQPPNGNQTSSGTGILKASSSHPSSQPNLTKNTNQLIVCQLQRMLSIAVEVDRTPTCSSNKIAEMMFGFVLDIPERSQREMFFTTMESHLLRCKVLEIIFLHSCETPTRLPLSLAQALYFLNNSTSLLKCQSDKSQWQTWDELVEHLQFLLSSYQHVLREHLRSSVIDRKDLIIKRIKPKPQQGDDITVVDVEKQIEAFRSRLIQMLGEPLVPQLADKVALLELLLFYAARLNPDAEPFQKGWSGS

GFP-SIMC1 (human) = GFP-SIMC1 (human) (UniProt Q8NDZ2); assay: as above

binding (GFP-SMC6 (human)): binds
Molecule: 2Myc-SIMC1 (from UniProt Q8NDZ2 1-872)

binding [1]: binds | binding (GFP-SIMC1 (human)): binds
B1: Myc-SMC6 (protein, UniProt Q96SB8 1-1091)
chain: T1 sequence
